# Source: PubChem BioAssay AID1508600 (Functional Genomics Laboratory (NCATS/FGL), 2020)
# The whole screen tested about 53,000 sequences, of which about 3,700 (7%) were called active.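 The calls were made as follows: active = gene knockdowns whose robust z-score for IL-1 alpha signal is at least 2 or at most -2, so actives lie on both sides; inactive = the rest.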 The list shows a part of the results.
# Experiment: Components of the Cytosolic LPS Sensing Pathway: Gene Identification via Genome-wide siRNA Screen;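 also: robust z of the log signal after scaling to non-targeting control siRNA wells of the plate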
# Conditions: RAW264.7 macrophages, IL-1a HTRF, actives lie on both sides, screened at 100 nM (by protocol), cells primed 5 h with Pam3CSK4 first
# Method in brief: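 Knockdown: 100 nM siRNA, 48h, RAW264.7. Stimulation: Pam3CSK4 5 h, then LipidA via TransIT-TKO 24 h. Output: supernatant IL-1a HTRF, negative-control-normalized, log robust z-score; viability by CellTiter-Glo.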
row,Sequence,z-score
1,GGACUCCGUCAUAUACGAATT against Olfr1102,inactive: -0.187
2,GCCUGGACACCAUACCAAUTT against Plxdc2,inactive: 1.02
3,CGCUCUCAAGGUAUAGUCCTT against Cyp2d22,inactive: -0.183
4,GGAUGUGAGUUAAAAUCUUTT against 9630013D21Rik,inactive: 0.541
5,GGAGUUGUGGGAAGAAGAATT against Paip2,inactive: -1.25
6,GGUAUUCUUAGCACACAUGTT against Vmn1r225,inactive: 0.496
7,GACCUACCAGAUGAAGGUCTT against Vmn1r28,inactive: 0.29
8,CGUUUGACACUUUUGCCUUTT against Mid1,inactive: 1.09
9,GGUUCUCUACAAAGUAAGUTT against Slc35e1,inactive: -0.0459
10,GGUGGAAUUCUCUUCAACUTT against Mbtps1,inactive: -0.2
11,GCAGCCUUGUUUCAGUUCUTT against Fam43a,inactive: 0.765
12,GGAUAUGUACAGGAGCUAUTT against Ankrd13a,inactive: 1.48
13,GGCACAGAAUAUCCACCACTT against Olfr283,inactive: -1.01
14,GGUUGUAAGGAACUCUUGGTT against Slc22a29,inactive: -0.628
15,CCGACACCUGUCAAUUCUGTT against Tcof1,inactive: -0.697
16,GGAGCUCAAACAGGAGAACTT against Lhfpl4,inactive: 0.383
17,GCAGUAUGGGACUAUGCUUTT against Cp,inactive: -0.0969
18,GUGGCAGCACGACCUAUUCTT against Alyref2,inactive: -0.175
19,CCCUGAAACCUCGGUGUUUTT against Vmac,inactive: 1.34
20,GGAAAAGAGCCUCACAGACTT against Crispld1,inactive: 0.131
21,CCAGAGGUUCACAAAACGATT against Anapc5,inactive: 0.848
22,GGAUGAGAGGUAAAGUAACTT against Nptxr,inactive: 0.802

row,Sequence,z-score
1,GGAAAGUGACUGCAUGUUCTT against Pgp,inactive: -1.3
2,GGAACUAGCCUUCACUGACTT against Rabggta,inactive: 0.931
3,GGGCUCCUAUUGGACAAUUTT against Foxj2,inactive: 0.27
4,GUACUGCCCGUCCACUUUUTT against Insm2,inactive: -0.289
5,GGAACUCUGUAGACAGAAUTT against Lpin1,inactive: 0.705
6,GGAAUGUGGACAGUGGACATT against Fbxl20,inactive: -0.523
7,GGGAAGAAAGAAAAACAAGTT against Col5a3,inactive: -1.54
8,UGCCUAUGCGCGUGUUUUGTT against 4931440P22Rik,inactive: 1.29
9,GGGCAAAUAUCCUUAGUCATT against Lratd1,inactive: 0.536
10,GGAUGUCUGGAAUGAAACATT against Slc17a4,active: -3.16
11,CGGUACUAAACAUUACCUCTT against Olfr633,inactive: 0.957
12,GGGCAAGGGUCUCAAACUATT against Rangap1,inactive: -1.19
13,GGCCAAGUUUUCUAACUUUTT against Creg2,inactive: 0.0503
14,GGAGGUCCUUAUCGCUUGGTT against Vwa8,inactive: 0.709
15,CCCAGACAGAUUAUGUAUCTT against Btbd16,inactive: 0.234
16,UCAGCUUGCUCAUCAUUAATT against Wfdc13,inactive: -0.0724
17,GUGCAGCUAUGAGCUGUUCTT against Msrb1,inactive: 1.36
18,CCGAAAGAGGUGAUUGUUATT against Cdk12,inactive: -0.143
19,GGAUGCUCAAAACAUUGAATT against Cyp2d26,inactive: 1.99
20,GCCAUUCGUAGUUGAGACGTT against Ppat,inactive: -0.619
21,GGGUUGUAGCAUUUAAUUATT against Umodl1,inactive: 0.895
22,GGAGCUACAGCAGUGCUUUTT against Htr5a,inactive: 0.0517

# For convenience, part of the list above:
row,Sequence,z-score
15,CCCAGACAGAUUAUGUAUCTT against Btbd16,inactive: 0.234
16,UCAGCUUGCUCAUCAUUAATT against Wfdc13,inactive: -0.0724
17,GUGCAGCUAUGAGCUGUUCTT against Msrb1,inactive: 1.36
18,CCGAAAGAGGUGAUUGUUATT against Cdk12,inactive: -0.143

# (cont.)

row,Sequence,z-score
1,GGUAAUGGUAAAUGAUGUGTT against Celsr3,inactive: -0.661
2,GCCACCAUCGUCAUGUUGATT against Ptpre,inactive: 0.323
3,GGAGAUAAUAAUGAAGUCGTT against Sec11c,inactive: 0.353
4,GGCAUAACUGGCUUUGAAGTT against Eif3k,inactive: -1.79
5,CGUGCUGUUAUAAUGUUGUTT against Ccl12,inactive: 1.1
6,CCUAUGAAGCCAGUAUCCATT against C1ra,inactive: -0.104
7,CGGAAUCGAAACUUAAUUUTT against Necab1,inactive: 0.395
8,GGAUACAGGUUUGAGAUAUTT against Crispld2,inactive: -1.93
9,CCAACCUGACCUCAAAAUUTT against Olfr913,inactive: 1.69
10,GGAAGGUCAAGUCUUUUCUTT against Tesk1,inactive: 1.46
11,GGUUUAUACUCAUAACCUGTT against Kifbp,active: 2.03
12,GGGACUUAGAAACAAUCCATT against Hsd3b4,inactive: 1.77
13,CCUGGAUCUACUUUUCAGUTT against Mrgprd,inactive: -0.519
14,GGGCCUAAUGAUUUGAUAUTT against Klhdc10,inactive: 0.566
15,GCUCAUGCAUGAGAAUGCCTT against Ifi30,inactive: -1.28
16,GGAUGACCAGAACUUCAGUTT against Zfp956,active: 2.84
17,GGUAUUUCGGCAACUAUCUTT against Dip2c,inactive: 1.79
18,GGAAAUAGAUUUUCAGCUCTT against Dnase2b,inactive: 0.138
19,GGACGAUCUCUACAUAGAUTT against Mrps28,inactive: 1.35
20,CCUACGCAAUGAUGACCAGTT against Med16,inactive: 0.466
21,GGAUGACUCUAUCUUUCUATT against Igfbp4,inactive: 0.892
22,CCUAAUUACUACCACUACATT against Csn3,inactive: 1.58

row,Sequence,z-score
1,CCAUAAACGACGAAAUGAUTT against Usp11,inactive: 0.189
2,GGAACAAGUGGCUGAAGAUTT against Cyp11b2,inactive: 0.566
3,GGGUGUCAUAUGCAAAUUATT against Scube1,inactive: 0.274
4,GCUGGUAUGACCAAGAGAATT against Mutyh,inactive: 0.679
5,CCUAAUCAAAGGCACUAGATT against Lmbrd1,inactive: 1.46
6,CCUUUGUGGCAGUCUUUCATT against Vpreb3,inactive: 0.519
7,CCUGGAGAUCCCUCACUUUTT against Olfr1351,inactive: 1.39
8,GCGUGUUGAAUUGAGGAAGTT against Galnt11,active: 4.15
9,CGGCAGUGUUAAAACAUGATT against Fgfr2,inactive: -0.696
10,GGCAUGAACCAAGAUGCUGTT against Nr2e3,inactive: 0.326
11,GCCCAUCAGAUGGCAAGAUTT against Pisd,inactive: 1.09
12,GGACCAGUAUCAGAACAUCTT against Xrcc5,inactive: -0.718
13,GGCUAUGCCAUGAACUUCUTT against Inhbc,inactive: 0.299
14,GGAACGUGAAUCUACAGCATT against Tex43,active: -2.73
15,GGGUUAGGUCAUCUAAAUGTT against Slf1,inactive: 0.31
16,GGAAGAUAAAUCACAAUCATT against Cdc37l1,inactive: 0.051
17,GGUGUUUUGCUGUUAAUAATT against Foxd4,inactive: 0.495
18,GGCUCUUGUUGAUUGGGCUTT against Adamtsl5,inactive: 0.242
19,GGGUCAAAGCAGAAAAAUCTT against Hrnr,inactive: -1.58
20,CGAGGAUUUCUAUCCUGACTT against Ascc1,inactive: -0.764
21,GGGAACUCGAACAAGAAUUTT against Six1,inactive: 1.11
22,GGUGAAAUCCAGGAGUUUUTT against Rnd3,active: 2.02

# Individual results from the results shown.
# z-score, CCAGAGGUUCACAAAACGATT against Anapc5 is entered as inactive: 0.848
# z-score, CCCAGACAGAUUAUGUAUCTT against Btbd16 is entered as inactive: 0.234
# z-score, GGUGAAAUCCAGGAGUUUUTT against Rnd3 is entered as active: 2.02
# z-score, GCAGUAUGGGACUAUGCUUTT against Cp is entered as inactive: -0.0969

# Remaining list, next part:

row,Sequence,z-score
1,GGGCAGCAUCGGACUAAAUTT against Agtr1a,active: 2.35
2,GGAUAUCAAAGACAAAGCATT against Vps53,active: -2.58
3,GGUAGAGCGCAGAAUUAGATT against Luc7l3,inactive: 0.736
4,GGACAUCGGAUUCUACACCTT against Psg19,inactive: 0.531
5,GCAAUUGCUUUGCAUUUACTT against Rabgap1l,inactive: -0.000836
6,GCACCUCGUUCACCAAUAUTT against Hs2st1,inactive: 1.67
7,GCUGAGACCCAGAUGCAAUTT against Mal,inactive: 0.858
8,CCCACUUUAUAGGACAUAUTT against Zhx3,inactive: -1.46
9,GGAGUGUAUGAUGCUGAUGTT against S100a9,inactive: 0.118
10,GCAAUUAGUAUCUAUUACCTT against Txndc17,inactive: -0.448
11,GGAGACAGAUUGCUACAGATT against Itga7,inactive: -0.884
12,GCCCGUAAAACUCUUUCAGTT against Spata31,inactive: 0.643
13,GGACCUGCCUUACAGCUUUTT against A430090L17Rik,inactive: 0.0156
14,GGCCAGGAAAGCAUUAAGATT against Trim2,inactive: -0.0543
15,GGCAGAUGCAAUCCAUUGGTT against Tas2r104,inactive: -0.729
16,GGCAUCUUUCACAGUUUUGTT against Hspa12b,active: 2.13
17,GGCCUUGAUAUCAACAAGATT against Pkia,inactive: 0.103
18,GGACUGUGCAGUUAUUGUCTT against Psma6,active: -2.17
19,ACAAAGAAGCGAUUUCUAUTT against Wtip,inactive: 1.32
